From article doi:10.1101/266833
Results are given in words; binding and its absence hold for the method and conditions named. In cells and extracts the contact can be indirect. Here binding means that the protein was enriched with, or labelled near, the bait; the list need not be complete. For some assays here: A no says only that the protein was not detected with the bait. Values belong to the binder of their own block, whether it stands above or below them.

Assays:
Experiment in all cases: affinity purification with mass spectrometry
Upf3-TAP (S. cerevisiae) = biological target: T1, Upf3-TAP (S. cerevisiae) (UniProt P48412)
T1 sequence: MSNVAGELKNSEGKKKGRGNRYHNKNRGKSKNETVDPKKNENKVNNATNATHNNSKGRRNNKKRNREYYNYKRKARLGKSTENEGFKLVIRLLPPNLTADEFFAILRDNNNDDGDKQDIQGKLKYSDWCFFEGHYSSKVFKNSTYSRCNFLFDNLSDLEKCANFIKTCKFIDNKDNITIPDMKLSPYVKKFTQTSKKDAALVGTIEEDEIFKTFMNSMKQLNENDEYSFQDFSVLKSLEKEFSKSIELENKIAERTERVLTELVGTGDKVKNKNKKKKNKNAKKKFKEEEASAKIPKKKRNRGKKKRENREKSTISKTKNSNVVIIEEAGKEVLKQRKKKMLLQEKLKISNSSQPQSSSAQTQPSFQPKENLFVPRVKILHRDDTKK

[1] = biological target: T2, TAP-Upf1-CH (2-208) (S. cerevisiae) (UniProt P30771)
T2 sequence: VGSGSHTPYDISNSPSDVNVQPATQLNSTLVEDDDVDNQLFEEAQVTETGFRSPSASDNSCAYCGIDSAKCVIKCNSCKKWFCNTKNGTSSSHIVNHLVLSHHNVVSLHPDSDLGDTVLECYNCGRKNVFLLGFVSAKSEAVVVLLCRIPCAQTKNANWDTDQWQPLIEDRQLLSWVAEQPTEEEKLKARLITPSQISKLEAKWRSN

[2] = biological target: T3, TAP-Upf1-HD-Cter (208-971) (S. cerevisiae) (UniProt P30771)
T3 sequence: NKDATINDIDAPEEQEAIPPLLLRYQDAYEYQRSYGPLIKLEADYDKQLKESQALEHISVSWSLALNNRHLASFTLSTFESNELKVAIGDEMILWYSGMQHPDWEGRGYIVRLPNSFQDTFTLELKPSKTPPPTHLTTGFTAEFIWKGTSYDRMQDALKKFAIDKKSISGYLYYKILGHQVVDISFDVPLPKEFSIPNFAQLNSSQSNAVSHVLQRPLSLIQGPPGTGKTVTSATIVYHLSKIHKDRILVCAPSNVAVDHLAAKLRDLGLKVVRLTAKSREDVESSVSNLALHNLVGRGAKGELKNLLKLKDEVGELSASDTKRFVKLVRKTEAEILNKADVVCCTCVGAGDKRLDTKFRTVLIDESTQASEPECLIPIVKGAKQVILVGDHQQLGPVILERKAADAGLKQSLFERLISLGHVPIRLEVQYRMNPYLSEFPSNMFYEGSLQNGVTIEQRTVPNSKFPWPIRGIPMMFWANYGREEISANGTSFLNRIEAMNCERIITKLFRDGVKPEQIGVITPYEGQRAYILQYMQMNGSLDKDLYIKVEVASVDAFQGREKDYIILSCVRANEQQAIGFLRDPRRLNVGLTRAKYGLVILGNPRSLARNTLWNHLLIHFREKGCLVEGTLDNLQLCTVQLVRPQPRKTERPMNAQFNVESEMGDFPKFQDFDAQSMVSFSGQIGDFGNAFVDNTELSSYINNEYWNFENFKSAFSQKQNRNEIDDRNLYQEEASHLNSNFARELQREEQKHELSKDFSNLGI

[3] = biological target: T4, TAP-Upf1-FL (S. cerevisiae) (UniProt P30771)
T4 sequence: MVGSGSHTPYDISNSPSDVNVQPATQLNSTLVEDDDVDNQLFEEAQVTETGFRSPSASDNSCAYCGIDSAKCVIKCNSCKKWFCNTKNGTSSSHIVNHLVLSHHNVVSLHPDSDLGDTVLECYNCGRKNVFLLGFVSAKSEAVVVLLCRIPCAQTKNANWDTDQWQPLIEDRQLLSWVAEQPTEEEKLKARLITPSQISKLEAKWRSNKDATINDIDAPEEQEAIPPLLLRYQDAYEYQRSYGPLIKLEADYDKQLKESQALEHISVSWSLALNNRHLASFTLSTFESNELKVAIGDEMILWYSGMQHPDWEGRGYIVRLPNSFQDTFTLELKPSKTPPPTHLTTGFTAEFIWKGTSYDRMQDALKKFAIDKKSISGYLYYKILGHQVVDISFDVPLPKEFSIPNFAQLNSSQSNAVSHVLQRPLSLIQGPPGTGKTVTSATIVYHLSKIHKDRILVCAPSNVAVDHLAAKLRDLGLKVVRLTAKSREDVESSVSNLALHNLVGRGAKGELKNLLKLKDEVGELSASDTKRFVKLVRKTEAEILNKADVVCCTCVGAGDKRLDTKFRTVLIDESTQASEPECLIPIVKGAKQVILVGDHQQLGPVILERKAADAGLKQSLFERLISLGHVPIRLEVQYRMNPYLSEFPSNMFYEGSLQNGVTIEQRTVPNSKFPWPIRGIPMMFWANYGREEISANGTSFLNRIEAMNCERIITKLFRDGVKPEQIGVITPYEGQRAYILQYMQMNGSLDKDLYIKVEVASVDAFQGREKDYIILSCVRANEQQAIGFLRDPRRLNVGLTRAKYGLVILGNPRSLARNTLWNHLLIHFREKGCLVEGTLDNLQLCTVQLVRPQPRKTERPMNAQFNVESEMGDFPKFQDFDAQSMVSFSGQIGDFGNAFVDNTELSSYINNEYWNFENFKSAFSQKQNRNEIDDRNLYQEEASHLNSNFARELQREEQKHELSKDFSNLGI

binding (Upf3-TAP (S. cerevisiae)): no binding
binding [1]: binds
binding [2]: binds
binding [3]: binds
B1: Ebs1 (protein, UniProt Q03466 1-884)
chain: MEPSNTQKEDLPTAFNGIKSQLNSILKSNQLFQDYALLNGFLAFVHSKLNAAILTSIESQCGKSFAADLDSFDQSSISSILDFSWESVHYPIFKWFQMWRNYILFEKENKKQQTKFIDFRKMNSKMLKFFKTVQNFYVNVINTVYKKYDISVLLPKRIIQDLKLSDIENTTNVGDILAVKTFNSSSPLAHLIPTLFHRCLLFLGTAYRYKTLLEEISNKYSISNFKKSLDFFRLASLVLPSAGETYSQAGAIFLQTGNLGIAVFNFVKGMMTKMPSPVSIKNFGALMVDNKSSLNRSLHTTIMNTYLQESKGPRTPAKEILEFYFLGLFGSVWSPTSWRDDTKPNQLNNGIKLRHLENALYETMSARYLNNIKTIFHNLIITIGGFHLLLKRRSDVSAKTLKDLRSNELDYLNFAFKYIAHILNDIVKESWSENPEVSEILGMVRIINCWIKANPMVLQYSQSNLEFVNALAYLINDIVKKKPSPSFSITEHIPKRTYWFEEDLMVKGLSFVNFQLSDFDDYEKILEMDHSLDRLIGNPPLCDKLSASSEMLLRLQAVVNISSQLLQNNNCGVEWSDNKSRYIFNKKIGFKETVKNSMKTSKQSNEKAKLQRKNKPSTTNGSISMADLERQMRSSSLDSFSPTMGYSGSSVPMAPDTFNVKPSGTITGNKVNVELLKIELSGQNADGAITNISPGYSNAAISSSNSTDESSFDLNNILSSMQQKHAEKSFAKSMQGVNEQIPANDVCHQAQRPMQGGLYSSQQPSSMSSLNSAYQNASMPPSASMVSYPYPFLNQQGQGVFPPYNAQNLQWQSEAYSLKSMNFANPTWLGDQYQTSAPSSAYAQAQRQMFQQPMQQDVGKYMQFPFDAQSNTDSMRGNSRNNMF

binding (Upf3-TAP (S. cerevisiae)): no binding
binding [1]: no binding
binding [2]: binds
binding [3]: binds
B2: Nmd4 (protein, UniProt Q12129 1-218)
chain: MTQYNFIIDASAFEKGLGNIKRWCSDCTEAVTLNFYIPTFTLNELDFLQQRRKSFAARESLKFIDRLDDSKFANLKVFIEFPEVLDIILWSDVMEHNDSSGKINIAKLPKRLKNLLKSCIYKCYLEGNEGLHWFLISEDPQIREMAMQCNIPSCSIVDVDSILSKDMNDKSFRESEKFNNMMLKNGTKEESENGREIIRTNFNKTVYASRGTGELWSP
